In the supplement of paper PMC10849652:
This is one part of the list.

Protein sequences, listed by entry. Tags and fused reporters are not part of them. Lines headed by an entry give the natural chain unless they say otherwise; changes in a name come on top.
UniProt Q14444, whole entry, looked up: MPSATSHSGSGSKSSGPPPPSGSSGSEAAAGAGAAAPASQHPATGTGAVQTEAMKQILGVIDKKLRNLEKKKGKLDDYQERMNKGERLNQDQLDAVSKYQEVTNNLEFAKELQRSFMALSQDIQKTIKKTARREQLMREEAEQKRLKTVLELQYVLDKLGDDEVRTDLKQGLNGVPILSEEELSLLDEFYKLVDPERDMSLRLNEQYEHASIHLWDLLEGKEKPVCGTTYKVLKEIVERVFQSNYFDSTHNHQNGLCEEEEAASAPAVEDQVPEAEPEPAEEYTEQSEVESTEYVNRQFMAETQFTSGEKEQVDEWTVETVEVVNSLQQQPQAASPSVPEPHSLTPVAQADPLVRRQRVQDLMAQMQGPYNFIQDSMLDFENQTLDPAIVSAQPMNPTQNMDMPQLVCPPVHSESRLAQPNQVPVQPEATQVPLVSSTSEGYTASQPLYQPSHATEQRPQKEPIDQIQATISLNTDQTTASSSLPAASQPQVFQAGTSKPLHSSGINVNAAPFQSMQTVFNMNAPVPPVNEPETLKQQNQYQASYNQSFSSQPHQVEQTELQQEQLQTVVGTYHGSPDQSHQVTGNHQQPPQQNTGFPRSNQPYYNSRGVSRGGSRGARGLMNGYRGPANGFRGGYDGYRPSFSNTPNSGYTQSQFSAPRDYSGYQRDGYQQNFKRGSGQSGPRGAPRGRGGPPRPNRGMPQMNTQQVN
UniProt Q6P1X6: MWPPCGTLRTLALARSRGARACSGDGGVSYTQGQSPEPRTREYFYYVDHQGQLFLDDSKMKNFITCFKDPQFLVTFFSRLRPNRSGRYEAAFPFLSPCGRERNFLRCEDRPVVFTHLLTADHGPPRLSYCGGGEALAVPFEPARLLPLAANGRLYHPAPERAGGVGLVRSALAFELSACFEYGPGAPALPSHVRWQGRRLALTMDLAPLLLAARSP
UniProt Q5T5Y3: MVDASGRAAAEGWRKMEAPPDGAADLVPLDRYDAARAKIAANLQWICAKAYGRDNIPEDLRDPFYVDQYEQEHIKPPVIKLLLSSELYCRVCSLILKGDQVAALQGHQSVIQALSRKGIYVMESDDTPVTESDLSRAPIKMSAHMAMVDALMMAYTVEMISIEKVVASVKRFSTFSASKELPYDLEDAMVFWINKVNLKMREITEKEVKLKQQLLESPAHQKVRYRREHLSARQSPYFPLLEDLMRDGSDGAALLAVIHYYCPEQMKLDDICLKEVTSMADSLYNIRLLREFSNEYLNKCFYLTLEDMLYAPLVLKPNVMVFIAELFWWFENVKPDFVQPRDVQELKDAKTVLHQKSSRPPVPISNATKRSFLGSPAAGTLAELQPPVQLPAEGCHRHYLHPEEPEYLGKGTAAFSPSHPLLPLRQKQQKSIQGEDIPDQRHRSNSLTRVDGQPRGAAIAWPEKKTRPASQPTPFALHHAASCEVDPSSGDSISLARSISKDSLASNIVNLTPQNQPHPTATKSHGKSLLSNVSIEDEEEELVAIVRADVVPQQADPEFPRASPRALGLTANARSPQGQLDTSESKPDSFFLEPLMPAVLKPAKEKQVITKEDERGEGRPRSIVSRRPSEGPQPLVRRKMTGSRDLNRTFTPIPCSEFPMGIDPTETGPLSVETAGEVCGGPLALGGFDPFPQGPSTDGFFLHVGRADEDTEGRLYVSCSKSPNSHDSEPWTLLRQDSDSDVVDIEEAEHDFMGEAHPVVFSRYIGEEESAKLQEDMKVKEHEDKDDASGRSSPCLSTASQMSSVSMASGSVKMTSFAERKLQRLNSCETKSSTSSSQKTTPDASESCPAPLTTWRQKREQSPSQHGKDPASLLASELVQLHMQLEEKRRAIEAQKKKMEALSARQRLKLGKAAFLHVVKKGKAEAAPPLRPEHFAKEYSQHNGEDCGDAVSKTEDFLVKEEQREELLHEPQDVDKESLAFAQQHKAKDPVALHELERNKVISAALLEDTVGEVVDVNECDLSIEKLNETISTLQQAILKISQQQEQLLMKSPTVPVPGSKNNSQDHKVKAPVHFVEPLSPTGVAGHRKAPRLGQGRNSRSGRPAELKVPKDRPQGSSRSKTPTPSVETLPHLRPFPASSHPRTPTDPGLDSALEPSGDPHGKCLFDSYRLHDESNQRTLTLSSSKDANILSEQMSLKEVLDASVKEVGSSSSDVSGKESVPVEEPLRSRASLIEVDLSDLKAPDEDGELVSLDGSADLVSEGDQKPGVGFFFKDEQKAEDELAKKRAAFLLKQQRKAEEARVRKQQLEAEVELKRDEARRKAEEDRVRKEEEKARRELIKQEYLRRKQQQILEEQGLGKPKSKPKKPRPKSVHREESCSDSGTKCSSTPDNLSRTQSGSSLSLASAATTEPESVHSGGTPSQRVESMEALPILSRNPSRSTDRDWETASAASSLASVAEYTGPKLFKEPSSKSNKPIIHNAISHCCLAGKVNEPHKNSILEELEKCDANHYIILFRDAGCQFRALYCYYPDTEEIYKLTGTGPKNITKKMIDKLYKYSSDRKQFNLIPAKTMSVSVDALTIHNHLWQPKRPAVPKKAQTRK
UniProt Q13901: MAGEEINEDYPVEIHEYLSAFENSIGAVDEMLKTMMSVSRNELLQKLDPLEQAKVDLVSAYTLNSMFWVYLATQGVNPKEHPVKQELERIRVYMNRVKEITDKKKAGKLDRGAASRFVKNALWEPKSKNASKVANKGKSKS
UniProt O43852: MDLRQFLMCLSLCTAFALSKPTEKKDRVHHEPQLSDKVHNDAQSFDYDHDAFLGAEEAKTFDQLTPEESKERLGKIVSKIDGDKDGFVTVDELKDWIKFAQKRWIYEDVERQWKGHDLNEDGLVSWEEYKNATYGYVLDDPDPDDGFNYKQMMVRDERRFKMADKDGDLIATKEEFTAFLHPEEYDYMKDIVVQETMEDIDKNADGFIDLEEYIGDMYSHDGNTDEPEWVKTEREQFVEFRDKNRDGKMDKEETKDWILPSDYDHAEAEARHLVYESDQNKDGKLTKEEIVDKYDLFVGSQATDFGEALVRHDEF
UniProt P27797, whole entry, looked up: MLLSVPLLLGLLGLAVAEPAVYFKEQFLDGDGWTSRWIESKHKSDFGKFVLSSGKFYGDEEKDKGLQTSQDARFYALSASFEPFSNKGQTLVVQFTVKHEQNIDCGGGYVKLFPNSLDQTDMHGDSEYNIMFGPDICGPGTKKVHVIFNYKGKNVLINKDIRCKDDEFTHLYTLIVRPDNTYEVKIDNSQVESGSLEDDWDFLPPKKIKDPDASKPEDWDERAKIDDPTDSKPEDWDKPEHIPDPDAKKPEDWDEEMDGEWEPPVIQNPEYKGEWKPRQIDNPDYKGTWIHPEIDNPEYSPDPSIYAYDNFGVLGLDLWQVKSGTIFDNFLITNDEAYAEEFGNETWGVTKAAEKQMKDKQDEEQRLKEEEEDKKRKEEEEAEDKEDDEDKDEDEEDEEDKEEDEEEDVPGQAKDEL
UniProt P35219: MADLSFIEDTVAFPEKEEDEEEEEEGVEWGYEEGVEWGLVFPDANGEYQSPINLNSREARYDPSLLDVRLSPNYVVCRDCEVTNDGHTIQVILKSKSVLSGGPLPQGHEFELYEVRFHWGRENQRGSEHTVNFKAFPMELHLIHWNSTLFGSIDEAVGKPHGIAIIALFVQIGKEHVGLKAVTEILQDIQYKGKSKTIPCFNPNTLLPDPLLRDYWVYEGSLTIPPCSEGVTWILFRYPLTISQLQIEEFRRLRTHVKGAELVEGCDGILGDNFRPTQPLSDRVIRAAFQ
UniProt Q86VP6: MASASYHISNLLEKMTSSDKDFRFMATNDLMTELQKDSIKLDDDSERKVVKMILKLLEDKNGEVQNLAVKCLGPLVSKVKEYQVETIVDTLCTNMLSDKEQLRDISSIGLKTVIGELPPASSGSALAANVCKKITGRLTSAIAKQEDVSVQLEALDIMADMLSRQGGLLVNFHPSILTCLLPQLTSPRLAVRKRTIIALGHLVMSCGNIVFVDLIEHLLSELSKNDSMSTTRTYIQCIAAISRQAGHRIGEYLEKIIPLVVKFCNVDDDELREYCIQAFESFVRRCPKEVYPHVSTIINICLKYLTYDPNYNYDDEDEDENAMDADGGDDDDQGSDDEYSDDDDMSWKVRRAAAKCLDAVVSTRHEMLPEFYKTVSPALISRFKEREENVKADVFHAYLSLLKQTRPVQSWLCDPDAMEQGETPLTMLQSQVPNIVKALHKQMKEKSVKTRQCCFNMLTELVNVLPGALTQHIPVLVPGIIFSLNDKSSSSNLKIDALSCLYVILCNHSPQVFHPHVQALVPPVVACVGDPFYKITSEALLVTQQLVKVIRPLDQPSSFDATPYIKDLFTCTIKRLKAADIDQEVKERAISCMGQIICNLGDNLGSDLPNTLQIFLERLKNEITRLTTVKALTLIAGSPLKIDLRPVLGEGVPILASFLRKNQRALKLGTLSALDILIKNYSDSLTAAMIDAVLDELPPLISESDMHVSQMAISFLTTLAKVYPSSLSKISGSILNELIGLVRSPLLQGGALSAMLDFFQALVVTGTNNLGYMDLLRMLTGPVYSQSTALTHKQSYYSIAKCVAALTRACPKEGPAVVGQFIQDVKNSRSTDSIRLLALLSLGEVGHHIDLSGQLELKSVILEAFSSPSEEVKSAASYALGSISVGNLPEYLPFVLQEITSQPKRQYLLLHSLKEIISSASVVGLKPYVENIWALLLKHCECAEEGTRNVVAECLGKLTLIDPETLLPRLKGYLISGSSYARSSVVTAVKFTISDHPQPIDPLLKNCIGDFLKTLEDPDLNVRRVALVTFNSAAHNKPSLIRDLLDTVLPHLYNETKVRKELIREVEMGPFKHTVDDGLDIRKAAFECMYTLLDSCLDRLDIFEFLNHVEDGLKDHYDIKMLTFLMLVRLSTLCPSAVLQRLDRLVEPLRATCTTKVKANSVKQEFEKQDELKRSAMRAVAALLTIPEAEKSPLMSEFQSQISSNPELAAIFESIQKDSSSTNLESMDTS
UniProt Q10589, whole entry, looked up: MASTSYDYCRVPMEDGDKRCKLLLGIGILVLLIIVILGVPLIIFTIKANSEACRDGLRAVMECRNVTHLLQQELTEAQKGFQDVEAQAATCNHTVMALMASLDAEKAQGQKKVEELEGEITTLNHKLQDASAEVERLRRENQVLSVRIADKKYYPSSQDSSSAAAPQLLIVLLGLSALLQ
UniProt Q8N5I9: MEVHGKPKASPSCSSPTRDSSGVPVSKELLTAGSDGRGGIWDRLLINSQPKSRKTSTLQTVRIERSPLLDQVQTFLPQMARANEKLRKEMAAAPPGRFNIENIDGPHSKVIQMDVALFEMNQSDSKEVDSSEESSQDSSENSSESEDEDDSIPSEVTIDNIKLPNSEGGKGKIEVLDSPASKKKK
UniProt Q8N8R5: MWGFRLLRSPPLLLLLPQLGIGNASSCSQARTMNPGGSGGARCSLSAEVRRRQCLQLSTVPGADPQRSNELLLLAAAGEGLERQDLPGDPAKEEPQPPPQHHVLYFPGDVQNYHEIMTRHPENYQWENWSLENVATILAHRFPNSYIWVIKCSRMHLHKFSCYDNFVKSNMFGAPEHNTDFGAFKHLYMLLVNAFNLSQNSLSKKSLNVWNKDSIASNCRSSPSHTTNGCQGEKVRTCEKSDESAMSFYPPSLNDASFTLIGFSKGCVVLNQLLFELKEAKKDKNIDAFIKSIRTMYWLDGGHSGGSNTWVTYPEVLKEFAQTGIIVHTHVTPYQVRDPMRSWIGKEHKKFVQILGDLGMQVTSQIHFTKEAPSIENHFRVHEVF
UniProt Q9H8G2: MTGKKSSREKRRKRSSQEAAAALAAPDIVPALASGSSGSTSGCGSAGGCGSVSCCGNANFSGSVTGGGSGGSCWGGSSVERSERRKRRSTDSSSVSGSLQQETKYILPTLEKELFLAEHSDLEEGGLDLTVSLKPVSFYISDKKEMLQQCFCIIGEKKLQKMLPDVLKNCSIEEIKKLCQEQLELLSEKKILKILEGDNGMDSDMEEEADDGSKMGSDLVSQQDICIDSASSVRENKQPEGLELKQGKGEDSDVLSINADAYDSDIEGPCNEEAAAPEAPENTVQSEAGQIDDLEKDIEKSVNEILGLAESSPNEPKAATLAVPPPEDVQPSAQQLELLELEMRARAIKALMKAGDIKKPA
UniProt Q5T6V5: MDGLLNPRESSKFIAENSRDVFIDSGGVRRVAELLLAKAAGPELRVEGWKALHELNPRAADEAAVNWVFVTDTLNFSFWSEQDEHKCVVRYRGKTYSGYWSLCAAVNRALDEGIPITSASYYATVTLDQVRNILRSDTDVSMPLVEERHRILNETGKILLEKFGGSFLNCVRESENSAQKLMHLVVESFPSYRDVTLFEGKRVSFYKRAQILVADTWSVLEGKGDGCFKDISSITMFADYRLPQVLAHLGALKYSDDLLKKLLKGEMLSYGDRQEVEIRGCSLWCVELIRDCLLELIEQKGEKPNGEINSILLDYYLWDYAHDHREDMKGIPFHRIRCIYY

Legend:
Test in all cases: log2 fold change, soluble protein after heating vs DMSO (PISA); higher = thermal stabilisation; K562 cells, 10 uM, 30 min; active = over 0.2 and 3.5 SD of the protein, either way, in both replicates (recomputed)
[1] = compound: C#Cc1cccc(Nc2ncnc3cc(OCCOC)c(OCCOC)cc23)c1 [erlotinib]
In short: (§1)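 Values are thermal stability changes relative to control samples and are taken from duplicates. They are stated as log2 fold changes. Before quantification by TMTpro 16plex LC-MS/MS with equalised channel sums, K562 cells at 2×10^6 cells/mL were treated with 10 μM compound for 30 min, heated in aliquots for 3 min across 48°C-58°C, pooled, extracted in PBS with 0.5% NP-40 at 4°C, and centrifuged at 21,000xg for 90 min to give the soluble supernatant.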

[2] = compound: C/C(=N\NC(=O)C1=CC(=CC=C1)S(=O)(=O)N2CCOCC2)/C3=C(C=CC(=C3)Cl)O
In short: as §1

[3] = compound: C1=CC(=C(C=C1Cl)C2=NC3=NC=CN=C3C(=N2)NC4=CC=NC=C4)F
In short: as §1

[4] = compound: C1=CC(=CC=C1C2=NC3=C(N2)C=C(C=C3)C(=O)N)OC4=CC=C(C=C4)Cl
In short: as §1

[5] = compound: C1=CC2=C(C=CC(=C2)/C=C\3/C(=O)NC(=NCC4=CC=CS4)S3)N=C1
In short: as §1

[6] = compound: C1=CC2=NC=CN=C2C=C1/C=C/3\C(=O)NC(=O)S3
In short: as §1

[7] = compound: C1=CC=C(C=C1)C2=NC(=C(N2)C3=CC=NC=C3)C4=CC(=C(C=C4)Cl)O
In short: as §1

[8] = compound: C1=CC=C2C(=C1)C3=NNC4=CC=CC(=C43)C2=O
In short: as §1

[9] = compound: C1CCN(C1)C(=O)NC2=CC=CC(=C2)NC3=NC=C(C(=N3)NCCC4=CN=CN4)Br
In short: as §1

[10] = compound: C1CN(CCC1(CC2=CC=C(C=C2)Cl)N)C3=NC=NC4=C3C=CN4
In short: as §1

Measured: log2 fold change

CAPRIN1 (UniProt Q14444)
inactive: [1] -0.103 | [2] -0.121 | [3] -0.272 | [4] 0.034 | [5] -0.054 | [6] 0.004 | [7] -0.082 | [8] -0.077 | [9] 0.085 | [10] -0.103

C8orf82 (UniProt Q6P1X6)
inactive: [1] 0.015 | [2] -0.011 | [3] 0.041 | [4] -0.039 | [5] -0.031 | [6] -0.025 | [7] 0.006 | [8] -0.04 | [9] 0.017 | [10] 0.05

CAMSAP1 isoform 3 (UniProt Q5T5Y3)
inactive: [1] -0.084 | [2] 0.023 | [3] -0.014 | [4] -0.013 | [5] 0.058 | [6] 0.007 | [7] 0.035 | [8] -0.078 | [9] -0.016 | [10] 0.006

C1D (UniProt Q13901)
inactive: [1] 0.022 | [2] -0.078 | [3] -0.01 | [4] -0.011 | [5] -0.246 | [6] 0.068 | [7] -0.071 | [8] -0.044 | [9] -0.019 | [10] -0.1

CALU isoform 4 (UniProt O43852)
inactive: [1] 0.029 | [2] 0.015 | [3] 0.026 | [4] -0.043 | [5] -0.01 | [6] 0.048 | [7] -0.091 | [8] 0 | [9] 0.021 | [10] 0.032

CALR (UniProt P27797)
inactive: [1] -0.052 | [2] -0.031 | [3] 0.011 | [4] -0.016 | [5] -0.038 | [6] -0.021 | [7] -0.008 | [8] 0 | [9] 0.029 | [10] -0.015

CA8 (UniProt P35219)
inactive: [1] -0.045 | [2] 0.051 | [3] 0.092 | [4] -0.017 | [5] 0.054 | [6] 0.019 | [7] 0.118 | [8] -0.02 | [9] -0.054 | [10] 0.011

CAND1 (UniProt Q86VP6)
inactive: [1] 0.011 | [2] 0.009 | [3] 0.067 | [4] -0.006 | [5] -0.001 | [6] 0.002 | [7] 0.026 | [8] 0.003 | [9] 0 | [10] 0.05

BST2 (UniProt Q10589)
inactive: [1] -0.018 | [2] 0.026 | [3] -0.046 | [4] 0 | [5] 0.009 | [6] 0.024 | [7] -0.062 | [8] -0.013 | [9] 0.066 | [10] -0.063

C12orf45 (UniProt Q8N5I9)
inactive: [1] 0.014 | [2] -0.017 | [3] 0.045 | [4] -0.009 | [5] -0.056 | [6] 0.093 | [7] -0.087 | [8] -0.011 | [9] 0.001 | [10] -0.014

C19orf53 (UniProt Q9UNZ5)
inactive: [1] -0.161 | [2] -0.216 | [3] -0.52 | [4] 0.079 | [5] -0.129 | [6] -0.011 | [7] -0.024 | [8] -0.028 | [9] 0.053 | [10] -0.176

C2orf69 (UniProt Q8N8R5)
inactive: [1] 0.063 | [2] 0.167 | [3] 0.048 | [4] 0.069 | [5] -0.09 | [6] 0.035 | [7] -0.037 | [8] -0.084 | [9] -0.026 | [10] -0.001

C20orf27 isoform 2 (UniProt Q9GZN8)
inactive: [1] -0.013 | [2] 0.12 | [3] -0.014 | [4] 0.016 | [5] 0.281 | [6] -0.021 | [7] 0.066 | [8] 0.015 | [9] 0.008 | [10] 0.016

CAAP1 (UniProt Q9H8G2)
inactive: [1] -0.07 | [2] 0.068 | [3] -0.143 | [4] 0.035 | [5] -0.035 | [6] -0.094 | [7] -0.345 | [8] -0.161 | [9] 0.111 | [10] 0.016

Reprinted at random: two entries already listed
CALU isoform 4 (UniProt O43852)
inactive: [1] 0.029 | [2] 0.015 | [3] 0.026 | [4] -0.043 | [5] -0.01 | [6] 0.048 | [7] -0.091 | [8] 0 | [9] 0.021 | [10] 0.032

CAND1 (UniProt Q86VP6)
inactive: [1] 0.011 | [2] 0.009 | [3] 0.067 | [4] -0.006 | [5] -0.001 | [6] 0.002 | [7] 0.026 | [8] 0.003 | [9] 0 | [10] 0.05

Continuation:

C9orf64 (UniProt Q5T6V5)
inactive: [1] 0.046 | [2] 0.142 | [3] 0.009 | [4] 0.065 | [5] 0.117 | [6] 0.017 | [7] 0.054 | [8] -0.037 | [9] -0.001 | [10] -0.039
